Source: PMC12431657, “Discovery and mechanistic insights of dibenzoylmethane as a broad spectrum inhibitor of coronavirus” (PLOS Pathogens, 2025)
Counter-ions that a name gives are not always drawn. Like-named read-outs stand apart in the source and are kept apart here. Among all 3,300 compounds or so, about 60 (2%) showed an effect of 50% or more. The list shows a part of the results.

Test system: HCoV-OC43
Parameters: species or system RD; HTS, protection from HCoV-OC43 induced cell death, luminescent cell viability (CellCounting-Lite 2.0), inhibition rate
Conditions: 24 h post infection, 1 h compound pre-incubation, 10 µM, inhibitor

Row | Compound | OC43 Inhibition rate | OC43 Inhibition rate (OC43 Inhibition rate, 24 h)
1 | COc1ccc(CCO[C@@H]2O[C@H](CO[C@@H]3O[C@H](CO)[C@H](O)[C@H](O)[C@H]3O)[C@@H](OC(=O)/C=C/c3ccc(O)c(OC)c3)[C@H](O[C@@H]3O[C@@H](C)[C@H](O)[C@@H](O)[C@H]3O)[C@H]2O)cc1O [Jionoside B1] | -0.2% | 
2 | COc1cc2c(cc1OC)-c1c(C)c3ccc(OC)c(OC)c3c[n+]1CC2 [Dehydrocorydaline (chloride)] |  | 0.6%
3 | CCCCCCCCCCCCCCCCCCCCC [Heneicosane] | -0.3% | 
4 | CC(C)=CCc1cc2c(cc1O)oc(=O)c1c3ccc(O)cc3oc21 [Psoralidin] | 0% | 
5 | Cc1nc2ccccc2o1 [2-Methylbenzoxazole] | -0.1% | 
6 | C[C@H](CCC(=O)O)[C@H]1CC[C@H]2[C@@H]3CC[C@@H]4C[C@H](O)CC[C@]4(C)[C@H]3CC[C@]12C [Lithocholic acid] | 1.2% | 
7 | O=C(O)/C=C/c1cnc[nH]1 [Urocanic acid] | -0.3% | 
8 | COc1cc(C[C@@H](C)[C@@H](C)Cc2ccc(O)c(OC)c2)ccc1O [Dihydroguaiaretic acid] | 0.8% | 
9 | C=C1CC[C@H]2O[C@]2(C)CC[C@@H]2[C@@H]1CC2(C)C [Caryophyllene oxide] | -0.3% | 
10 | O=C(O)CCCC[C@@H]1SC[C@@H]2NC(=O)N[C@@H]21 [Biotin] | 0% | 
11 | COc1c2c(cc3oc(C)cc(=O)c13)O[C@H](C(C)(C)O)C2 [5-O-Methylvisamminol] | 1.8% | 
12 | CC1(C)CC[C@]2(C(=O)O)[C@H](O)C[C@]3(C)C(=CC[C@@H]4[C@@]5(C)CC[C@H](O)[C@@](C)(C=O)[C@@H]5CC[C@]43C)[C@@H]2C1 [Quillaic acid] | 0.8% | 
13 | COc1ccc(C[C@@H]2COc3c(C)c(O)c(C)c(O)c3C2=O)cc1 [Methylophiopogonanone B] | -2.7% | 
14 | NCCc1ccc(O)cc1 [Tyramine] | -0.5% | 
15 | COc1ccc(/C=C/C(=O)c2ccc(OC)c3c2OC(C)(C)C=C3)cc1 [Millepachine] | 23.1% | 
16 | Nc1ncnc2c1ncn2[C@@H]1O[C@H](CO)[C@@H](O)[C@H]1OP(=O)(O)O [Adenosine-2'-monophosphate] | 0.6% | 
17 | CC1(C)CCC2=C(O1)c1ccccc1C(=O)C2=O [β-Lapachone] | -1.8% | 
18 | CC(C)(O)[C@H]1CC[C@@](C)([C@H]2[C@@H](O)C[C@@]3(C)[C@@H]4C[C@H](O)[C@H]5C(C)(C)[C@@H](O)CC[C@@]56C[C@@]46CC[C@]23C)O1 [Cyclogalegenin] | 8.4% | 
19 | CC(C)=CCC[C@@](C)(O)[C@H]1CC[C@]2(C)[C@@H]1[C@H](O)C[C@@H]1[C@@]3(C)C[C@@H](O)[C@H](O[C@@H]4O[C@H](CO)[C@@H](O)[C@H](O)[C@H]4O[C@@H]4O[C@H](CO)[C@@H](O)[C@H](O)[C@H]4O)C(C)(C)[C@@H]3CC[C@]12C [Gypenoside LI] | 0% | 
20 | CC[C@H](O)C(=O)O [(S)-2-Hydroxybutanoic acid] | 0% | 

Row | Compound | OC43 Inhibition rate | OC43 Inhibition rate (OC43 Inhibition rate, 24 h)
21 | CCCCCCCCCCCCCCCCCCCCC(=O)O [Heneicosanoic acid] | 0% | 
22 | CC(=O)O[C@@]12CO[C@@H]1C[C@@H](O)[C@@]1(C)C(=O)[C@H](O)C3=C(C)[C@@H](OC(=O)[C@H](O)[C@@H](NC(=O)c4ccccc4)c4ccccc4)C[C@@](O)([C@@H](OC(=O)c4ccccc4)[C@H]21)C3(C)C [7-Epi 10-desacetyl paclitaxel] | 0.2% | 
23 | C/C=C/c1ccc(OC)c(OC)c1 [Methyl isoeugenol] | -3.3% | 
24 | C[C@@H]1O[C@@H](O[C@H]2[C@H](Oc3c(-c4ccc(O)cc4)oc4cc(O)cc(O)c4c3=O)O[C@H](CO)[C@@H](O)[C@@H]2O)[C@H](O)[C@H](O)[C@H]1O [Kaempferol 3-neohesperidoside] | 1.4% | 
25 | CC1(C)CC[C@]2(C(=O)O)CC[C@]3(C)C(=CC[C@@H]4[C@@]5(C)C[C@H](O)[C@H](O)[C@@](C)(C(=O)O)[C@@H]5CC[C@]43C)[C@@H]2C1 [Medicagenic acid] | -0.5% | 
26 | COc1cc(/C=C/C(=O)CC(=O)/C=C/c2ccc(O)c(OC)c2)ccc1O [Curcumin] | -0.2% | 
27 | O=C1CCCCO1 [Tetrahydro-2H-pyran-2-one] | -0.5% | 
28 | C[C@H](CC[C@@H](O[C@@H]1O[C@H](CO)[C@@H](O)[C@H](O)[C@H]1O)C(C)(C)O)[C@H]1CC[C@@]2(C)[C@@H]3CC=C4[C@@H](CC[C@H](O[C@@H]5O[C@H](CO)[C@@H](O)[C@H](O)[C@H]5O)C4(C)C)[C@]3(C)[C@H](O)C[C@]12C [Mogroside IIe] | -0.2% | 
29 | O=C(O)C1CCCCN1O (centres unmarked) [N-Hydroxypipecolic acid] | -0.7% | 
30 | O=C(O)c1ccc(CO)o1 [5-Hydroxymethyl-2-furancarboxylic acid] | -1.1% | 
31 | O=C(O)CCCC(=O)C(=O)O [Oxoadipic acid] | 1.6% | 
32 | O=C(O)CC1CCCCC1 [Cyclohexaneacetic acid] | 1.3% | 
33 | C/C=C(\C)C(=O)O[C@H]1[C@H](OC(C)=O)[C@]2(CO)[C@H](O)C[C@]3(C)C(=CC[C@@H]4[C@@]5(C)CC[C@H](O[C@@H]6O[C@H](C(=O)O)[C@@H](O[C@@H]7O[C@H](CO)[C@@H](O)[C@H](O)[C@H]7O)[C@H](O)[C@H]6O[C@@H]6O[C@H](CO)[C@@H](O)[C@H](O)[C@H]6O)[C@](C)(CO)[C@@H]5CC[C@]43C)[C@@H]2CC1(C)C [Escin IA] | 1.1% | 
34 | CC(C)=CCC[C@](C)(O[C@@H]1O[C@H](CO[C@@H]2O[C@H](CO)[C@@H](O)[C@H](O)[C@H]2O)[C@@H](O)[C@H](O)[C@H]1O)[C@H]1CC[C@]2(C)[C@@H]1[C@H](O)C[C@@H]1[C@@]3(C)CC[C@H](O[C@@H]4O[C@H](CO)[C@@H](O)[C@H](O)[C@H]4O[C@@H]4O[C@H](CO)[C@@H](O)[C@H](O)[C@H]4O)C(C)(C)[C@@H]3CC[C@]12C [Ginsenoside Rb1] | 0.2% | 
35 | O=C(O)CC(=O)OC[C@H]1O[C@@H](Oc2c(-c3ccc(O)c(O)c3)oc3cc(O)cc(O)c3c2=O)[C@H](O)[C@@H](O)[C@@H]1O [Quercetin 3-O-(6''-O-malonyl)-β-D-glucoside] | -1.3% | 
36 | CC(C)(O)[C@@H]1CC[C@](C)([C@H]2[C@@H](O)C[C@@]3(C)[C@@H]4C[C@H](O)[C@H]5C(C)(C)[C@@H](O)CC[C@]5(C)C4=CC[C@]23C)O1 [Astragenol] | -0.1% | 
37 | Cc1cc(O)c2c(c1)C(=O)c1cc(O)cc(O)c1C2=O [Emodin] | -2.2% | 
38 | C=C1C[C@@]23CC[C@H]4[C@@](C)(CCC[C@@]4(C)C(=O)O)[C@@H]2CC[C@@H]1C3 [Kaurenoic acid] | -0.8% | 
39 | Cc1c(O)c(C)c2occ(Cc3ccc4c(c3)OCO4)c(=O)c2c1O [Methylophiopogonone A] | 4% | 
40 | CC1(C)CC[C@]23CO[C@@]4(C=C[C@@H]5[C@@]6(C)CC[C@H](O)[C@@](C)(CO)[C@@H]6CC[C@@]5(C)[C@]4(C)C[C@@H]2O)[C@@H]3C1 [Saikogenin F] | 28.7% | 

16 consecutive compounds out of the list so far:
Row | Compound | OC43 Inhibition rate | OC43 Inhibition rate (OC43 Inhibition rate, 24 h)
24 | C[C@@H]1O[C@@H](O[C@H]2[C@H](Oc3c(-c4ccc(O)cc4)oc4cc(O)cc(O)c4c3=O)O[C@H](CO)[C@@H](O)[C@@H]2O)[C@H](O)[C@H](O)[C@H]1O [Kaempferol 3-neohesperidoside] | 1.4% | 
25 | CC1(C)CC[C@]2(C(=O)O)CC[C@]3(C)C(=CC[C@@H]4[C@@]5(C)C[C@H](O)[C@H](O)[C@@](C)(C(=O)O)[C@@H]5CC[C@]43C)[C@@H]2C1 [Medicagenic acid] | -0.5% | 
26 | COc1cc(/C=C/C(=O)CC(=O)/C=C/c2ccc(O)c(OC)c2)ccc1O [Curcumin] | -0.2% | 
27 | O=C1CCCCO1 [Tetrahydro-2H-pyran-2-one] | -0.5% | 
28 | C[C@H](CC[C@@H](O[C@@H]1O[C@H](CO)[C@@H](O)[C@H](O)[C@H]1O)C(C)(C)O)[C@H]1CC[C@@]2(C)[C@@H]3CC=C4[C@@H](CC[C@H](O[C@@H]5O[C@H](CO)[C@@H](O)[C@H](O)[C@H]5O)C4(C)C)[C@]3(C)[C@H](O)C[C@]12C [Mogroside IIe] | -0.2% | 
29 | O=C(O)C1CCCCN1O (centres unmarked) [N-Hydroxypipecolic acid] | -0.7% | 
30 | O=C(O)c1ccc(CO)o1 [5-Hydroxymethyl-2-furancarboxylic acid] | -1.1% | 
31 | O=C(O)CCCC(=O)C(=O)O [Oxoadipic acid] | 1.6% | 
32 | O=C(O)CC1CCCCC1 [Cyclohexaneacetic acid] | 1.3% | 
33 | C/C=C(\C)C(=O)O[C@H]1[C@H](OC(C)=O)[C@]2(CO)[C@H](O)C[C@]3(C)C(=CC[C@@H]4[C@@]5(C)CC[C@H](O[C@@H]6O[C@H](C(=O)O)[C@@H](O[C@@H]7O[C@H](CO)[C@@H](O)[C@H](O)[C@H]7O)[C@H](O)[C@H]6O[C@@H]6O[C@H](CO)[C@@H](O)[C@H](O)[C@H]6O)[C@](C)(CO)[C@@H]5CC[C@]43C)[C@@H]2CC1(C)C [Escin IA] | 1.1% | 
34 | CC(C)=CCC[C@](C)(O[C@@H]1O[C@H](CO[C@@H]2O[C@H](CO)[C@@H](O)[C@H](O)[C@H]2O)[C@@H](O)[C@H](O)[C@H]1O)[C@H]1CC[C@]2(C)[C@@H]1[C@H](O)C[C@@H]1[C@@]3(C)CC[C@H](O[C@@H]4O[C@H](CO)[C@@H](O)[C@H](O)[C@H]4O[C@@H]4O[C@H](CO)[C@@H](O)[C@H](O)[C@H]4O)C(C)(C)[C@@H]3CC[C@]12C [Ginsenoside Rb1] | 0.2% | 
35 | O=C(O)CC(=O)OC[C@H]1O[C@@H](Oc2c(-c3ccc(O)c(O)c3)oc3cc(O)cc(O)c3c2=O)[C@H](O)[C@@H](O)[C@@H]1O [Quercetin 3-O-(6''-O-malonyl)-β-D-glucoside] | -1.3% | 
36 | CC(C)(O)[C@@H]1CC[C@](C)([C@H]2[C@@H](O)C[C@@]3(C)[C@@H]4C[C@H](O)[C@H]5C(C)(C)[C@@H](O)CC[C@]5(C)C4=CC[C@]23C)O1 [Astragenol] | -0.1% | 
37 | Cc1cc(O)c2c(c1)C(=O)c1cc(O)cc(O)c1C2=O [Emodin] | -2.2% | 
38 | C=C1C[C@@]23CC[C@H]4[C@@](C)(CCC[C@@]4(C)C(=O)O)[C@@H]2CC[C@@H]1C3 [Kaurenoic acid] | -0.8% | 
39 | Cc1c(O)c(C)c2occ(Cc3ccc4c(c3)OCO4)c(=O)c2c1O [Methylophiopogonone A] | 4% | 

Next part:

Row | Compound | OC43 Inhibition rate | OC43 Inhibition rate (OC43 Inhibition rate, 24 h)
41 | COc1ccc(/C=C/C(=O)O)cc1O [Isoferulic acid] | -1.3% | 
42 | CC(C)=CCOc1c2ccoc2cc2oc(=O)ccc12 [Isoimperatorin] | 0.5% | 
43 | CC(C)C1=C[C@H]2[C@@H](CC[C@]2(C)O)[C@](C)(O)CC1 [Alismoxide] | -0.9% | 
44 | C/C=C1\[C@H]2C=C(C)C[C@]1(N)c1ccc(=O)[nH]c1C2 [(-)-Huperzine A] | 2.3% | 
45 | C=CCc1cc(OC)c(O[C@@H](C)[C@H](O)c2ccc(O)c(OC)c2)c(OC)c1 [Myrislignan] | 0% | 
46 | O=C(O)CCc1ccc(O)c(O)c1 [Dihydrocaffeic acid] | -1% | 
47 | CCCCCCCCCCCC(=O)OC [Methyl laurate] | 0.1% | 
48 | CC(CC(=O)O)CC(=O)O [3-Methylglutaric acid] | 0.7% | 
49 | COc1cc(O)c2c(=O)c3c(O[C@@H]4O[C@H](CO)[C@@H](O)[C@H](O)[C@H]4O)ccc(O)c3oc2c1 [Swertianolin] | -0.3% | 
50 | N[C@H]1[C@H](O[C@H]2[C@H](O)[C@@H](N)C(O)O[C@@H]2CO)O[C@H](CO)[C@@H](O)[C@@H]1O (some centres unmarked) [Chitobiose (dihydrochloride)] | 0.1% | 
51 | COc1cc2c(cc1OC)[C@@H]1Cc3ccc(OC)c(OC)c3C[N@@+]1([O-])CC2 [(-)-Corynoxidine] | 0.9% | 
52 | Cn1cc(C(N)=O)ccc1=O [Nudifloramide] | 2.9% | 
53 | O=C(O)/C=C/c1ccccc1 [trans-Cinnamic acid] |  | -0.5%
54 | O=c1ccc2cc(O)ccc2o1 [6-Hydroxycoumarin] | 0.2% | 
55 | O=C(O)c1ccccc1 [Benzoic acid] | -0.2% | 
56 | O=C(O)c1cccnc1C(=O)O [Quinolinic acid] | -0.2% | 
57 | CCOCc1ccccc1 [(Ethoxymethyl)benzene] | -2.3% | 
58 | O=C(O)c1ccc(C(=O)O)o1 [2,5-Furandicarboxylic acid] | 1.7% | 
59 | O=c1c2cc(O)c(O)cc2oc2c([C@@H]3O[C@H](CO)[C@@H](O)[C@H](O)[C@H]3O)c(O)cc(O)c12 [Isomangiferin] | 3.6% | 
